This assay addresses T1, RILPL1-GFP WT (UniProt Q5EBL4).
T1 sequence: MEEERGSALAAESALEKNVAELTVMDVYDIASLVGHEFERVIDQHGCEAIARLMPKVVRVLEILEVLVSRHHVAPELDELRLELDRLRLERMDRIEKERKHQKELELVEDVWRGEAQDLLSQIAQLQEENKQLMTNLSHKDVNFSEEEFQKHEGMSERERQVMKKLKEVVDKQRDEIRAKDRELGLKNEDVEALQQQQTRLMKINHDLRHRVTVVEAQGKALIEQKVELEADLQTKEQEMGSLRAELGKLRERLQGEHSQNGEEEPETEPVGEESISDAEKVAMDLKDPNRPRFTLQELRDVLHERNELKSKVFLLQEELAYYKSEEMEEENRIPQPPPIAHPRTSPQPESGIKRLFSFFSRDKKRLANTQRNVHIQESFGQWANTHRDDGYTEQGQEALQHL
The assay can be described thus: affinity purification with mass spectrometry; GFP IPs from HEK293 cells transiently transfected with RILPL1-GFP WT or RILPL1-GFP [R293A], LRRK2[Y1699C] and HA-Rab8A[Q67L]; TMT label-based MS, WT compared with R293A.

Chains of the proteins cited; added tags and fusions are not shown. Lines headed by an entry give the natural chain unless they say otherwise; changes in a name come on top. A line that says so, or that is headed by a name, gives the form on record, which may keep a tag or linker. Residues count along the entry.
UniProt P20674, residues 42-150: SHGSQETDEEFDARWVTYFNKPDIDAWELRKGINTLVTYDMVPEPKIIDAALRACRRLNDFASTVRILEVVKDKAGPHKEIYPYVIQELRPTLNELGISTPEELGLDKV
UniProt P61026: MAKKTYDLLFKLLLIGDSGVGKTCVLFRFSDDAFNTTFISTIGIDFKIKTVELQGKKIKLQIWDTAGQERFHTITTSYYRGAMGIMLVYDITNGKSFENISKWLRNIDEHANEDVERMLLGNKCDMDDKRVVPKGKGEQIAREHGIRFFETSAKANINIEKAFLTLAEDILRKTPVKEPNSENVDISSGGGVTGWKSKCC
endogenous TMEM55B (Q86T03-2, form named): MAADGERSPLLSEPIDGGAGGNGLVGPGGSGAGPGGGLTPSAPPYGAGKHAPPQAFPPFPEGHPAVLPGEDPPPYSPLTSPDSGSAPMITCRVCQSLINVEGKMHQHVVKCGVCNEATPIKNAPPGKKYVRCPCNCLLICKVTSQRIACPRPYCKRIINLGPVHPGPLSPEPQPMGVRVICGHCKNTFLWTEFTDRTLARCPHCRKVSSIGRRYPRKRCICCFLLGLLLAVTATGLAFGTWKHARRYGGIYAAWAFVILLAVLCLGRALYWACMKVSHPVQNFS
UniProt O43678: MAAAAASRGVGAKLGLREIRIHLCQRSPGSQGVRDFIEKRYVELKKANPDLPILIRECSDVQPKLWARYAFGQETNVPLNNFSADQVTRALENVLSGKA

Results are given in words; binding and its absence hold for the method and conditions named. Binding seen in cells or lysates may run through a third protein. Here binding means that the protein was enriched with, or labelled near, the bait; the list need not be complete. Tags and fused reporters may be left off the sequences shown.

With COX5A (from UniProt P20674 42-150), the binding entry was “binds”.

Turning to Rab10 (from UniProt P61026 1-200), the binding result is listed as “binds”.

Regarding “endogenous TMEM55B (from UniProt Q86T03-2 1-284)”, the binding entry is reported as “binds”.

Take NDUFA2 (from UniProt O43678 1-99): the binding result is recorded as “binds”.

B1: Rab34 (protein, UniProt Q9BZG1 1-259)
chain: MNILAPVRRDRVLAELPQCLRKEAALHGHKDFHPRVTCACQEHRTGTVGFKISKVIVVGDLSVGKTCLINRFCKDTFDKNYKATIGVDFEMERFEVLGIPFSLQLWDTAGQERFKCIASTYYRGAQAIIIVFNLNDVASLEHTKQWLADALKENDPSSVLLFLVGSKKDLSTPAQYALMEKDALQVAQEMKAEYWAVSSLTGENVREFFFRVAALTFEANVLAELEKSGARRIGDVVRINSDDSNLYLTASKKKPTCCP
Take B1: the binding entry is “binds”.

The record behind these values is paper PMC10848721.
